Values from PubChem BioAssay AID1053208 (Peter MacCallum Cancer Centre, 2014)
In all, the deposit lists about 17,000 reagents; this is a part drawn at random. In the full data, 788 (4.7%) got an active call. 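Calls rest on z-score classes alone; an extra cut-off of viability at most 70% of control was not applied to them.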 The numbers tell different reagents against one gene apart. Not all columns of the deposit are shown.

Aim: 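Find knock-downs that sensitise mouse osteosarcoma cells to doxorubicin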 (primary screen)
Cells: mouse osteosarcoma cells, early-passage culture from an engineered mouse model of fibroblastic bone tumour
Reagent: siRNA pool against mouse genes, 40 nM
Duration: about 120 h (48 h before drug, then 72 h with drug)
Challenge: doxorubicin 100 nM for 72 h, roughly 30-40% inhibitory dose
Measurement: 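Viability read as ATP luminescence after 72 h of 100 nM doxorubicin or none, duplicate wells averaged, scaled to non-targeting siRNA, then expressed as robust z-scores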
Reading the numbers: viability z-score with doxorubicin: higher = more viable cells under doxorubicin; viability z-score without drug: higher = more viable cells with knock-down alone; z-score of drug to no-drug ratio: higher = less drug sensitisation by knock-down
Active means: 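Called active if knock-down leaves viability unchanged without drug (z within -2 to 2) but lowers it with doxorubicin (z at or under -2)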

no.	gene knocked down	pool no.	combined z-score class	viability z-score with doxorubicin	viability z-score without drug	z-score of drug to no-drug ratio	outcome
1	Pkd1l3 (GeneID 244646)	1	no change with or without drug	1.57	-0.17	1.91	inactive
2	Xkrx (GeneID 331524)	1	no change with or without drug	0.34	-0.84	1.12	inactive
3	Lect2 (GeneID 16841)	1	no change with or without drug	1.12	1.85	0	inactive
4	Bbln (GeneID 73737)	1	no change with or without drug	1.12	0.34	1.01	inactive
5	Fgr (GeneID 14191)	1	no change with or without drug	0.34	0.84	-0.11	inactive
6	Mtfp1 (GeneID 67900)	1	no change with or without drug	-1.57	-1.18	-0.79	inactive
7	Or2a20 (GeneID 258366)	1	no change with or without drug	-1.57	-1.52	-0.56	inactive
8	Ctdspl (GeneID 69274)	1	high cell count with doxorubicin only	2.7	1.52	1.69	inactive
9	Tcirg1 (GeneID 27060)	1	no change with or without drug	-0.11	-0.17	0.11	inactive
10	F8a (GeneID 14070)	1	no change with or without drug	0.56	0.84	0.11	inactive
11	Il13ra2 (GeneID 16165)	1	no change with or without drug	1.91	1.18	1.24	inactive
12	Vmn1r6 (GeneID 171193)	1	no change with or without drug	0	-0.67	0.56	inactive
13	Aplnr (GeneID 23796)	1	no change with or without drug	-0.22	-1.52	1.01	inactive
14	Fkbp7 (GeneID 14231)	1	no change with or without drug	0.9	0.51	0.67	inactive
15	Echdc1 (GeneID 52665)	1	no change with or without drug	0.56	1.85	-0.56	inactive
16	Tsc22d1 (GeneID 21807)	1	low cell count with doxorubicin only	-2.36	-0.84	-1.91	active
17	Or8b1b (GeneID 258797)	1	high cell count without drug only	0.22	2.19	-1.01	inactive
18	Slc18a1 (GeneID 110877)	1	low cell count with doxorubicin only	-2.14	-0.34	-1.91	active
19	Plxnb2 (GeneID 140570)	1	high cell count with doxorubicin only	3.26	1.85	2.02	inactive
20	Or8b44 (GeneID 258801)	1	high cell count without drug only	0.34	3.54	-1.57	inactive
21	Cdk12 (GeneID 69131)	1	low cell count with and without drug	-2.25	-2.36	-0.79	inactive
22	Poc5 (GeneID 67463)	1	no change with or without drug	0.67	1.18	0	inactive
23	Or12d13 (GeneID 258830)	1	high cell count with doxorubicin only	2.36	-0.84	3.37	inactive
24	Tnf (GeneID 21926)	1	no change with or without drug	0.22	-0.17	0.45	inactive
25	Pramel48 (GeneID 320549)	1	no change with or without drug	-0.67	0.84	-1.12	inactive
26	Slc2a8 (GeneID 56017)	1	no change with or without drug	0	0.67	-0.34	inactive
27	Zfp157 (GeneID 72154)	1	no change with or without drug	0.56	-0.17	0.79	inactive
28	Grpel2 (GeneID 17714)	1	no change with or without drug	0.79	-0.34	1.24	inactive
29	Ddx39a (GeneID 68278)	1	no change with or without drug	0.22	0.84	-0.22	inactive
30	Dhx36 (GeneID 72162)	1	no change with or without drug	0.9	1.85	-0.22	inactive
31	H2-D1 (GeneID 14964)	1	high cell count with and without drug	2.02	2.53	0.45	inactive
32	Iqcf4 (GeneID 67320)	1	no change with or without drug	0.67	1.52	-0.22	inactive
33	Rbfox2 (GeneID 93686)	1	no change with or without drug	0.9	-0.51	1.46	inactive
34	Spcs1 (GeneID 69019)	1	no change with or without drug	0.22	1.35	-0.56	inactive
35	Atrip (GeneID 235610)	1	low cell count without drug only	-0.22	-2.19	1.57	inactive
36	Gas2 (GeneID 14453)	1	low cell count without drug only	-1.69	-2.19	-0.22	inactive
37	Zfp334 (GeneID 228876)	1	high cell count with doxorubicin only	2.7	1.52	1.69	inactive
38	Dapp1 (GeneID 26377)	1	no change with or without drug	-1.35	0.34	-1.46	inactive
39	Apobec1 (GeneID 11810)	1	high cell count with doxorubicin only	2.02	-0.51	2.7	inactive
40	Zfp148 (GeneID 22661)	1	no change with or without drug	0.56	1.18	-0.11	inactive
41	Npas4 (GeneID 225872)	1	no change with or without drug	-0.56	0.51	-0.79	inactive
42	Or2a5 (GeneID 258270)	1	no change with or without drug	0.45	-0.67	1.12	inactive
43	Frem1 (GeneID 329872)	1	no change with or without drug	-1.24	0.34	-1.35	inactive
44	Pcdhgb7 (GeneID 93704)	1	no change with or without drug	-1.12	0.84	-1.57	inactive
45	Ndc80 (GeneID 67052)	1	no change with or without drug	0.56	0.51	0.34	inactive
46	Fat4 (GeneID 329628)	1	high cell count without drug only	1.46	2.02	0.22	inactive
47	Fat4 (GeneID 329628)	2	no change with or without drug	-0.9	-1.52	0.22	inactive
48	4632425D07RIK	1	no change with or without drug	1.01	1.18	0.34	inactive
49	Mapkapk2 (GeneID 17164)	1	no change with or without drug	1.12	1.52	0.22	inactive
50	Vmn2r37 (GeneID 22305)	1	no change with or without drug	-0.9	-0.84	-0.22	inactive

Copied from the list:
For “outcome”, Gas2 (GeneID 14453) has inactive
For “z-score of drug to no-drug ratio”, Pkd1l3 (GeneID 244646) has 1.91
For “z-score of drug to no-drug ratio”, Aplnr (GeneID 23796) has 1.01
Apobec1 (GeneID 11810), viability z-score with doxorubicin: 2.02
Result of Echdc1 (GeneID 52665) in “viability z-score without drug”: 1.85
Under “viability z-score with doxorubicin”, Or8b44 (GeneID 258801) is entered as 0.34
